Measured values as given in publication PMC7492282.
These are yes or no findings as the source states them, for the method shown. Binding seen in cells or lysates may run through a third protein. Some entries that bind do so weakly or less than the wild type.

Sequences of proteins named here, by UniProt entry; tags and fusion partners are left off.
UniProt P35222: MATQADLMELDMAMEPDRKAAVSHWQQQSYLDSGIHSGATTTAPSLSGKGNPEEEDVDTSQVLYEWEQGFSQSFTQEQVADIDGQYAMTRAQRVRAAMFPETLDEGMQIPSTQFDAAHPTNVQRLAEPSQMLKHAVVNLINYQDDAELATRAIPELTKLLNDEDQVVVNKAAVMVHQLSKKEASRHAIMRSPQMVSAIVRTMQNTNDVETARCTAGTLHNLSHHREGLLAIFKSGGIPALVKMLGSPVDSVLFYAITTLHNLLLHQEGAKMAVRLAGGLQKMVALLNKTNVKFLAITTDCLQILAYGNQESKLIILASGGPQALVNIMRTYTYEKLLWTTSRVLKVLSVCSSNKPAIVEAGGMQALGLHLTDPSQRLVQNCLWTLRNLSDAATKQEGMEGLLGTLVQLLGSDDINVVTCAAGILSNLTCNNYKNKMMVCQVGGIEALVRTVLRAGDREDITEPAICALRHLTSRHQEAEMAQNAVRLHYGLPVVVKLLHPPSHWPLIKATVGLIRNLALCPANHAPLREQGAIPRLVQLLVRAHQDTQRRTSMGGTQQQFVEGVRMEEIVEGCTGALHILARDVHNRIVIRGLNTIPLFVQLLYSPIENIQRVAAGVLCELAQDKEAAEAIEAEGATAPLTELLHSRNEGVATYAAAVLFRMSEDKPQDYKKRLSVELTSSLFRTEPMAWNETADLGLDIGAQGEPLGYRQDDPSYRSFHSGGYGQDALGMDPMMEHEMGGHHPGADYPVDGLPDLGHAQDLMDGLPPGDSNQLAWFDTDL
UniProt Q93009: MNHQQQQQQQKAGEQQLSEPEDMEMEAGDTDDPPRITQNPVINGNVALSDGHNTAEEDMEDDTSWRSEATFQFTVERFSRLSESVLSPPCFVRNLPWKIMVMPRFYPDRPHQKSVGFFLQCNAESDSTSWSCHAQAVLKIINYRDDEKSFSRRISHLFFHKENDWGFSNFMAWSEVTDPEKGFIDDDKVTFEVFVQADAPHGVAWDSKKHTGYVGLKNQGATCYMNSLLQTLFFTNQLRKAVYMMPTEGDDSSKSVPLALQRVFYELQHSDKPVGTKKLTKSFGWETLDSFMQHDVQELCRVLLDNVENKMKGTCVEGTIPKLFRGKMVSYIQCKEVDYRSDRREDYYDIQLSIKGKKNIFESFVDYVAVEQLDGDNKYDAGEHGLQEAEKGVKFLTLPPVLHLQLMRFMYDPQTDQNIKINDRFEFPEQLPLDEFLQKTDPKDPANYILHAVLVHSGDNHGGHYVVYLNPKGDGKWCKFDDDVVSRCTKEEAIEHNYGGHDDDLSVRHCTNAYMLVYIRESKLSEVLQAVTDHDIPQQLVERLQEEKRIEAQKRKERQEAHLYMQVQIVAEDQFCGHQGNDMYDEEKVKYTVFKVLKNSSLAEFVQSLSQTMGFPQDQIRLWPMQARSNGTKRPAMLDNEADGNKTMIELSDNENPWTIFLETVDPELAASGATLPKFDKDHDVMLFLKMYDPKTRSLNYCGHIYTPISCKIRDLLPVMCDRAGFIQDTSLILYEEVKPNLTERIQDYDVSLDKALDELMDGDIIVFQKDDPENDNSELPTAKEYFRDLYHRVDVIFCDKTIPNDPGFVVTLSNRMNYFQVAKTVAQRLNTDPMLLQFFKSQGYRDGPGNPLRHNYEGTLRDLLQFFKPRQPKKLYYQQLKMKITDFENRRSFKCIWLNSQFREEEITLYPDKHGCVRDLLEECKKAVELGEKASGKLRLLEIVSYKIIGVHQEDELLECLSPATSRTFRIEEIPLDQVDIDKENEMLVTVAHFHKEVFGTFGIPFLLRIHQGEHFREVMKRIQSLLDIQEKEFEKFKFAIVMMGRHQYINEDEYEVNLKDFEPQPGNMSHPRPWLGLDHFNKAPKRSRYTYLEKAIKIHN

Legend:
[1] = target: T1, WD repeat-containing protein 1 (human (endogenous in PANC1 and AsPC1)) (UniProt O75083); assay: co-IP; lysates of PANC1 and AsPC1 cells in IP lysis buffer, pre-cleared with Protein G-agarose, primary antibodies 2 h at 4 °C, Protein G-agarose overnight at 4 °C, washed three times with 1×PBS, Western blotting; USP7 with β-Catenin in sh-Ctrl and sh-WDR1-1 cells
T1 sequence: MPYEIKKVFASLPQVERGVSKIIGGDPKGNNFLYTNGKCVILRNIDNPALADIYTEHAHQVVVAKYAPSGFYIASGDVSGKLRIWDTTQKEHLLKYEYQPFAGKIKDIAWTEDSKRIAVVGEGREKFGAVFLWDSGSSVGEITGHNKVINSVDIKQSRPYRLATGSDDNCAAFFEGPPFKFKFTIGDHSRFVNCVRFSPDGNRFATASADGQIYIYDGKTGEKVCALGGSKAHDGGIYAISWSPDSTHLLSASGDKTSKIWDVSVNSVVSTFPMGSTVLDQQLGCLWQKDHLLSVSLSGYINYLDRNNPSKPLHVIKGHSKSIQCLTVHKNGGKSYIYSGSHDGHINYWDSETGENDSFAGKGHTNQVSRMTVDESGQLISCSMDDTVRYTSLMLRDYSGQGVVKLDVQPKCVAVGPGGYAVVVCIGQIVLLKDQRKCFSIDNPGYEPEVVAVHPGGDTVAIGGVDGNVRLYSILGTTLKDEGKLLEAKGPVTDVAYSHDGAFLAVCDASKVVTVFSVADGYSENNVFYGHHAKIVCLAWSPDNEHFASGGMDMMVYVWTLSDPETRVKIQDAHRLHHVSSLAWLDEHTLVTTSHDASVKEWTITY

[2] = target: T1, WD repeat-containing protein 1 (human (endogenous in PANC1 and AsPC1)); assay: proximity ligation; in situ PLA in PANC1 and AsPC1 cells fixed with 4% formaldehyde and permeabilised with 0.05% Triton X-100; primary antibodies against WDR1 and USP7 from two different species

binding [1] | binding [2] | Substance
binds |  | β-Catenin (from UniProt P35222 1-781)
binds | binds | USP7 (from UniProt Q93009 1-1102) (enzyme)
